Test results published in patent US20140221340A1 (KYOWA HAKKO KIRIN CO., LTD., priority 2011, published 2014).
Some entries share one result that the patent states for a list of compounds. At least one structure is not confirmed: it was looked up by name or label, or the drawing left a doubt.

The molecules below were run against T1, human CCR10 (Homo sapiens, UniProt P46092) (assay: Calcium assay of human CCR10 (inhibition of CTACK-induced increase in intracellular calcium ion concentration in hCCR10G16 cells)). Conditions: at a concentration of 100 nmol/L; human recombinant CTACK.
T1 construct: expressed in transfected cells; host or cells: KJMGER8 cell (cell line derived from Namalwa cell); expression induced with 10 nmol/L β-estradiol
T1 sequence (P46092 1-362): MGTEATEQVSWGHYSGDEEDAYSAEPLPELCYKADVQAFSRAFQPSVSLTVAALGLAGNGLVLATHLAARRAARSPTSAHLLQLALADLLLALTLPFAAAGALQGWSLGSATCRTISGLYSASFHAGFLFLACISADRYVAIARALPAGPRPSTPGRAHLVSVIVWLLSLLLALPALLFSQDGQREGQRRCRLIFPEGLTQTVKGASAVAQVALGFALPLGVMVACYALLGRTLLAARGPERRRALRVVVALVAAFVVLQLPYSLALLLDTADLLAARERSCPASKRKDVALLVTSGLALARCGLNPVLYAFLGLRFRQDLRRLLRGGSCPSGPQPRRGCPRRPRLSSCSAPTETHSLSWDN
Format: cell-based
Method: A CCR10-inducible expression plasmid was produced according to a known method (“Analytical Biochemistry”, 2006, vol. 400, page 163). A DNA encoding human CCR10 was obtained by PCR. Using human chromosomal DNA (100 ng; manufactured by Clontech Laboratories, Inc.) as a template, a synthetic DNA having the sequences shown by SEQ ID NOs: 1 and 2 as a human CCR10 cDNA specific primer, and Pyrobest DNA Polymerase (manufactured by TAKARA SHUZO CO. LTD.) as an enzyme, a DNA encoding human CCR10 was obtained by PCR. As a buffer solution for PCR, the buffer solution attached to the enzyme was diluted 10-fold with deionized water and used. Using Thermal Cycler DNA Engine (manufactured by MJ Research), PCR was performed by 35 cycles of reactions composed of an incubation at 90° C. for 2 min, at 94° C. for 30 seconds, at an anneal temperature of 58° C. for 30 seconds, and at 72° C. for 1 min.
The amplified PCR fragment was cleaved with HindIII and NotI, then a human CCR10 DNA fragment was recovered by an agarose gel electrophoresis method. The fragment was incorporated in between the corresponding restriction enzyme sites (HindIII-NotI) of an inducible expression vector, whereby a human CCR10-inducible expression plasmid were prepared.
Using a primer specific to the sequence of the plasmid (synthetic DNA having the sequences shown by SEQ ID NOs: 3 and 4), the sequence of human CCR10 DNA region was determined. For the determination of the base sequence, DNA sequencer 377 (manufactured by PerkinElmer) and a reaction kit (ABI Prism (registered trade mark) BigDye (registered trade mark) Terminator Cycle Sequencing Ready Reaction kit: manufactured by Applied Biosystems) were used. The sequence of human CCR10 DNA matched with the sequence (NM_016602) registered in GenBank.
Cells for the detection of the signal from human CCR10 by a calcium assay were prepared. Human CCR10-inducible expressing cells whose host cell is KJMGER8 cell (cell line derived from Namalwa cell) were prepared according to a known method (“Analy Biochem”, 2006, vol. 400, page 163). Human CCR10-inducible expression plasmid produced above and Gα16 expression plasmid were co-transfected into KJMGER8 cell by an electroporation method (“Cytotechnology”, 1990, vol. 3, page 133), whereby a signal from human CCR10 could be detected by a calcium assay (hereinafter to be referred to as hCCR10G16 cell). Gα16 expression plasmid was produced by incorporating human Gα16 DNA into expression vector pAMoh (WO03/087366). Induced expression of human CCR10 was performed by cultivating hCCR10G16 cells in the presence of 10 nmol/L β-estradiol (manufactured by Sigma Ltd.) for 24 hr.
Cells expressing human CCR10 induced by the above-mentioned method were suspended in RPMI1640 medium and adjusted to cell density of 1.25×10^6 cells/mL. This mixture was dispensed to a 384 well clear bottom plate (manufactured by Corning Incorporated) at 20 μL/well, and these were incubated at 37° C. for several dozen minutes. A loading buffer prepared according to the protocol attached to FLIPR Calcium 3 assay kit (manufactured by Molecular Device) was dispensed to this plate at 20 μL/well, and the plate was incubated at 37° C. for 60 min. A 33 μmol/L DMSO solution of the test compound was diluted 37-fold with RPMI1640 medium and the resulting solution was added at 5 μL/well, and the mixture was incubated at 37° C. for 30 min. 300 nmol/L human recombinant CTACK (manufactured by R and D Systems) diluted with RPMI1640 medium containing 1 w/v % bovine serum albumin was added at 5 μL/well. Change of the intracellular calcium ion concentration for about 5 min after the addition was measured by FLIPR (manufactured by Molecular Device) or FDSS (manufactured by Hamamatsu Photonics K.K.). The difference between the maximum fluorescence intensity and the minimum fluorescence intensity for 5 min was calculated, and taken as the measurement value (maximum fluorescence intensity−minimum fluorescence intensity). […]

Row | Compound | antagonistic effect against CCR10
1 | Cc1cc(F)ccc1Nc1c(C(=O)N2CCC(c3ccccc3)CC2)cnc2c(S(=O)(=O)NC(=O)C(F)(F)F)cnn12 [a-70, 2,2,2-Trifluoro-N-[7-(4-fluoro-2-methylphenylamino)-6-(4-phenylpiperidine-1-carbonyl)pyrazolo[1,5-a]pyrimidin-3-ylsulfonyl]acetamide] | showed an antagonistic effect against CCR10
2 | Cc1cc(F)ccc1Nc1c(C(=O)N2CCC(c3ccccc3)CC2)cnc2c(S(=O)(=O)N=CN(C)C)cnn12 [a-73, N-[7-(4-Fluoro-2-methylphenylamino)-6-(4-phenylpiperidine-1-carbonyl)pyrazolo[1,5-a]pyrimidin-3-ylsulfonyl]-N,N-dimethylformimidamide] | showed an antagonistic effect against CCR10
3 | Cc1cc(Nc2c(C(=O)N3CCC(c4ccc(F)cc4)CC3)cnc3c(S(=O)(=O)NC(=O)C4CC4)cnn23)c(Cl)cc1F [a-41, N-{7-(2-Chloro-4-fluoro-5-methylphenylamino)-6-[4-(4-fluorophenyl)piperidine-1-carbonyl]pyrazolo[1,5-a]pyrimidin-3-ylsulfonyl}cyclopropanecarboxamide] | showed an antagonistic effect against CCR10
4 | CONS(=O)(=O)c1cnn2c(Nc3cc(Cl)ccc3Cl)c(C(=O)N3CCC(c4ccc(F)cc4)CC3)cnc12 [a-27, 7-(2,5-Dichlorophenylamino)-6-[4-(4-fluorophenyl)piperidine-1-carbonyl]-N-methoxypyrazolo[1,5-a]pyrimidine-3-sulfonamide] | showed an antagonistic effect against CCR10
5 | CCC(=O)NS(=O)(=O)c1cnn2c(Nc3cc(C)c(F)cc3Cl)c(C(=O)N3CCC(c4ccc(F)cc4)CC3)cnc12 [a-40, N-{7-(2-Chloro-4-fluoro-5-methylphenylamino)-6-[4-(4-fluorophenyl)piperidine-1-carbonyl]pyrazolo[1,5-a]pyrimidin-3-ylsulfonyl}propionamide] | showed an antagonistic effect against CCR10
6 | COCC(=O)NS(=O)(=O)c1cnn2c(Nc3ccc(F)cc3C)c(C(=O)N3CCC(c4ccccc4)CC3)cnc12 [a-64, N-[7-(4-Fluoro-2-methylphenylamino)-6-(4-phenylpiperidine-1-carbonyl)pyrazolo[1,5-a]pyrimidin-3-ylsulfonyl]-2-methoxyacetamide] | showed an antagonistic effect against CCR10
7 | CCNC(=O)NS(=O)(=O)c1cnn2c(Nc3cc(C)ccc3Cl)c(C(=O)N3CCC4(CC3)OCc3ccccc34)cnc12 [a-44, 7-(2-Chloro-5-methylphenylamino)-N-(ethylcarbamoyl)-6-[3H-spiro(isobenzofuran-1,4′-piperidine)-1′-carbonyl]pyrazolo[1,5-a]pyrimidine-3-sulfonamide] | showed an antagonistic effect against CCR10
8 | CCNC(=O)NS(=O)(=O)c1cnn2c(Nc3cc(F)ccc3Cl)c(C(=O)N3CCC(c4ccc(F)cc4)CC3)cnc12 [a-30, 7-(2-Chloro-5-fluorophenylamino)-N-(ethylcarbamoyl)-6-[4-(4-fluorophenyl)piperidine-1-carbonyl]pyrazolo[1,5-a]pyrimidine-3-sulfonamide] | showed an antagonistic effect against CCR10
9 | CCNC(=O)NS(=O)(=O)c1cnn2c(Nc3cc(C)ccc3Cl)c(C(=O)N3CCC(c4ccc(F)cc4)CC3)cnc12 [a-14, 7-(2-Chloro-5-methylphenylamino)-N-(ethylcarbamoyl)-6-[4-(4-fluorophenyl)piperidine-1-carbonyl]pyrazolo[1,5-a]pyrimidine-3-sulfonamide] | showed an antagonistic effect against CCR10
10 | CCNS(=O)(=O)c1cnn2c(Nc3cc(C)ccc3Cl)c(C(=O)N3CCC4(CC3)OCc3ccccc34)cnc12 [a-45, N-Ethyl-7-(2-chloro-5-methylphenylamino)-6-[3H-spiro(isobenzofuran-1,4′-piperidine)-1′-carbonyl]pyrazolo[1,5-a]pyrimidine-3-sulfonamide] | showed an antagonistic effect against CCR10
11 | CCC(=O)NS(=O)(=O)c1cnn2c(Nc3cc(Cl)ccc3Cl)c(C(=O)N3CCC(c4ccc(F)cc4)CC3)cnc12 [a-22, N-{7-(2,5-Dichlorophenylamino)-6-[4-(4-fluorophenyl)piperidine-1-carbonyl]pyrazolo[1,5-a]pyrimidin-3-ylsulfonyl}propionamide] | showed an antagonistic effect against CCR10
12 | CCNS(=O)(=O)c1cnn2c(Nc3ccc(Cl)cc3C)c(C(=O)N3CCC(c4ccc(F)cc4)CC3)cnc12 [a-16, N-Ethyl-7-(4-chloro-2-methylphenylamino)-6-[4-(4-fluorophenyl)piperidine-1-carbonyl]pyrazolo[1,5-a]pyrimidine-3-sulfonamide] | showed an antagonistic effect against CCR10
13 | CCNC(=O)NS(=O)(=O)c1cnn2c(Nc3cc(Cl)ccc3F)c(C(=O)N3CCC(c4ccc(F)cc4)CC3)cnc12 [a-34, 7-(5-Chloro-2-fluorophenylamino)-N-(ethylcarbamoyl)-6-[4-(4-fluorophenyl)piperidine-1-carbonyl]pyrazolo[1,5-a]pyrimidine-3-sulfonamide] | showed an antagonistic effect against CCR10
14 | CCC(=O)NS(=O)(=O)c1cnn2c(Nc3cc(C)ccc3F)c(C(=O)N3CCC(c4ccc(F)cc4)CC3)cnc12 [a-31, N-{7-(2-Fluoro-5-methylphenylamino)-6-[4-(4-fluorophenyl)piperidine-1-carbonyl]pyrazolo[1,5-a]pyrimidin-3-ylsulfonyl}propionamide] | showed an antagonistic effect against CCR10
15 | Cc1ccc(Cl)c(Nc2c(C(=O)N3CCC(c4ccc(F)cc4)CC3)cnc3c(S(=O)(=O)NC(N)=O)cnn23)c1 [a-77, N-Carbamoyl-7-(2-chloro-5-methylphenylamino)-6-[4-(4-fluorophenyl)piperidine-1-carbonyl]pyrazolo[1,5-a]pyrimidine-3-sulfonamide] | showed an antagonistic effect against CCR10
16 | O=C(c1cnc2c(S(=O)(=O)Nc3cccnn3)cnn2c1Nc1cc(Cl)ccc1Cl)N1CCC(c2ccc(F)cc2)CC1 [a-79, 7-(2,5-Dichlorophenylamino)-6-[4-(4-fluorophenyl)piperidine-1-carbonyl]-N-(pyridazin-3-yl)pyrazolo[1,5-a]pyrimidine-3-sulfonamide] | showed an antagonistic effect against CCR10
17 | CCNC(=O)NS(=O)(=O)c1cnn2c(Nc3ccc(C)cc3F)c(C(=O)N3CCC4(CC3)OCc3ccccc34)cnc12 [a-49, 7-(2-Fluoro-4-methylphenylamino)-N-(ethylcarbamoyl)-6-[3H-spiro(isobenzofuran-1,4′-piperidine)-1′-carbonyl]pyrazolo[1,5-a]pyrimidine-3-sulfonamide] | showed an antagonistic effect against CCR10
